# Some of the results follow.
# B1: PEB4 (Campylobacter jejuni), A1VYV6 (protein)
# chain: MKKFSLVAAALIAGVALNVNAATVATVNGKSISDAEVSEFFAPMLRGQDFKTLPDNQKKALIQQYIMQDLILQDAKKQNLEKDPLYTKELDRAKDAILVNVYQEKILNTIKIDAAKVKAFYDQNKDKYVKPARVQAKHILVATEKEAKDIINELKGLKGKELDAKFSELAKEKSIDPGSKNQGGELGWFDQSTMVKPFTDAAFALKNGTITTTPVKTNFGYHVILKENSQAKGQIKFDEVKQGIENGLKFEEFKKVINQKGQDLLNSAKVEYK
# Columns and labels:
# Experiment in all cases: glycan array binding signal (z-score within array); higher = stronger binding
# Settings in all cases: glycan notation: IUPAC condensed, linker removed
# [1] = target: GalNAc(b1-3)Gal(a1-4)Gal(b1-4)GlcNAc
# Summary of the method: (§1)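 Glycan array data were curated from 3228 arrays in the Consortium for Functional Glycomics database and kept only where the protein sequence was available. Glycan names were converted to IUPAC-condensed notation, and columns mapping to the same glycan were averaged. The binding signal is a within-array Z-score, averaged across arrays of the same protein sequence at different concentrations or buffers and across linkers. Negative Z-scores can be read as non-binding.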
# [2] = target: GalNAc(b1-3)Gal(a1-4)Gal(b1-4)GlcNAc(b1-3)Gal(b1-4)Glc
# Summary of the method: as §1
# [3] = target: GalNAc(b1-3)Gal(a1-6)Gal(b1-4)Glc
# Summary of the method: as §1
# GalNAc(b1-3)GalNAc = target: GalNAc(b1-3)GalNAc
# Summary of the method: as §1
# GalNAc(b1-4)GlcNAc = target: GalNAc(b1-4)GlcNAc
# Summary of the method: as §1
# [4] = target: GalNAc(b1-4)GlcNAc(b1-2)Man(a1-3)[GalNAc(b1-4)GlcNAc(b1-2)Man(a1-6)]Man(b1-4)GlcNAc(b1-4)GlcNAc
# Summary of the method: as §1
# Glc(a1-4)Glc = target: Glc(a1-4)Glc
# Summary of the method: as §1
# Glc(a1-6)Glc(a1-6)Glc = target: Glc(a1-6)Glc(a1-6)Glc
# Summary of the method: as §1
# Glc(b1-4)Glc = target: Glc(b1-4)Glc
# Summary of the method: as §1
# Glc(b1-6)Glc = target: Glc(b1-6)Glc
# Summary of the method: as §1
# GlcA(b1-3)Gal = target: GlcA(b1-3)Gal
# Summary of the method: as §1
# GlcA(b1-3)GlcNAc = target: GlcA(b1-3)GlcNAc
# Summary of the method: as §1
# GlcA(b1-6)Gal = target: GlcA(b1-6)Gal
# Summary of the method: as §1
# [5] = target: GlcNAc(a1-3)Gal(b1-4)GlcNAc
# Summary of the method: as §1
# [6] = target: GlcNAc(a1-4)Gal(b1-3)GlcNAc
# Summary of the method: as §1
# [7] = target: GlcNAc(a1-4)Gal(b1-4)GalNAc
# Summary of the method: as §1
# [8] = target: GlcNAc(a1-4)Gal(b1-4)GlcNAc
# Summary of the method: as §1
# [9] = target: GlcNAc(a1-4)Gal(b1-4)GlcNAc(b1-3)Gal(b1-4)Glc
# Summary of the method: as §1
# [10] = target: GlcNAc(a1-4)Gal(b1-4)GlcNAc(b1-3)Gal(b1-4)GlcNAc
# Summary of the method: as §1
# [11] = target: GlcNAc(a1-4)Gal(b1-4)GlcNAc(b1-3)Gal(b1-4)GlcNAc(b1-3)Gal(b1-4)GlcNAc
# Summary of the method: as §1
# [12] = target: GlcNAc(a1-4)Gal(b1-4)GlcNAc(b1-3)Gal(b1-4)[Fuc(a1-3)]GlcNAc(b1-3)Gal(b1-4)[Fuc(a1-3)]GlcNAc
# Summary of the method: as §1
# [13] = target: GlcNAc(a1-6)Gal(b1-4)GlcNAc
# Summary of the method: as §1
# [14] = target: GlcNAc(b1-2)Gal(b1-3)GalNAc
# Summary of the method: as §1
# [15] = target: GlcNAc(b1-2)Man(a1-3)[GlcNAc(b1-2)Man(a1-6)]Man(b1-4)GlcNAc(b1-4)GlcNAc
# Summary of the method: as §1
# [16] = target: GlcNAc(b1-2)Man(a1-3)[GlcNAc(b1-2)Man(a1-6)]Man(b1-4)GlcNAc(b1-4)[Fuc(a1-6)]GlcNAc
# Summary of the method: as §1
# [17] = target: GlcNAc(b1-2)[GlcNAc(b1-4)]Man(a1-3)[GlcNAc(b1-2)Man(a1-6)]Man(b1-4)GlcNAc(b1-4)GlcNAc
# Summary of the method: as §1
# GlcNAc(b1-3)Gal = target: GlcNAc(b1-3)Gal
# Summary of the method: as §1
# [18] = target: GlcNAc(b1-3)Gal(b1-3)GalNAc
# Summary of the method: as §1
# GlcNAc(b1-3)Gal(b1-4)Glc = target: GlcNAc(b1-3)Gal(b1-4)Glc
# Summary of the method: as §1
# [19] = target: GlcNAc(b1-3)Gal(b1-4)GlcNAc
# Summary of the method: as §1
# [20] = target: GlcNAc(b1-3)Gal(b1-4)GlcNAc(b1-3)Gal(b1-4)GlcNAc
# Summary of the method: as §1
# GlcNAc(b1-3)GalNAc = target: GlcNAc(b1-3)GalNAc
# Summary of the method: as §1
# GlcNAc(b1-3)Man = target: GlcNAc(b1-3)Man
# Summary of the method: as §1
# [21] = target: GlcNAc(b1-3)[GlcNAc(b1-4)][GlcNAc(b1-6)]GlcNAc
# Summary of the method: as §1
# [22] = target: GlcNAc(b1-3)[GlcNAc(b1-6)]Gal(b1-4)GlcNAc
# Summary of the method: as §1
# [23] = target: GlcNAc(b1-3)[GlcNAc(b1-6)]GalNAc
# Summary of the method: as §1
# [24] = target: GlcNAc(b1-4)Gal(b1-4)GlcNAc
# Summary of the method: as §1
binder,measurement,setting,value
B1,glycan array binding signal (z-score),[1],-1.81
same,glycan array binding signal (z-score),[2],-0.827
same,glycan array binding signal (z-score),[3],-0.249
same,glycan array binding signal (z-score),GalNAc(b1-3)GalNAc,-0.631
same,glycan array binding signal (z-score),GalNAc(b1-4)GlcNAc,-0.169
same,glycan array binding signal (z-score),[4],2.15
same,glycan array binding signal (z-score),Glc(a1-4)Glc,1.05
same,glycan array binding signal (z-score),Glc(a1-6)Glc(a1-6)Glc,-1.19
same,glycan array binding signal (z-score),Glc(b1-4)Glc,-0.17
same,glycan array binding signal (z-score),Glc(b1-6)Glc,-0.728
same,glycan array binding signal (z-score),GlcA(b1-3)Gal,-0.678
same,glycan array binding signal (z-score),GlcA(b1-3)GlcNAc,0.752
same,glycan array binding signal (z-score),GlcA(b1-6)Gal,-0.68
same,glycan array binding signal (z-score),[5],-0.109
same,glycan array binding signal (z-score),[6],0.418
same,glycan array binding signal (z-score),[7],-0.27
same,glycan array binding signal (z-score),[8],0.987
same,glycan array binding signal (z-score),[9],1.4
same,glycan array binding signal (z-score),[10],-1.38
same,glycan array binding signal (z-score),[11],0.285
same,glycan array binding signal (z-score),[12],4.35
same,glycan array binding signal (z-score),[13],-0.353
same,glycan array binding signal (z-score),[14],-0.782
same,glycan array binding signal (z-score),[15],-0.78
same,glycan array binding signal (z-score),[16],2.17
same,glycan array binding signal (z-score),[17],1.67
same,glycan array binding signal (z-score),GlcNAc(b1-3)Gal,-0.157
same,glycan array binding signal (z-score),[18],0.093
same,glycan array binding signal (z-score),GlcNAc(b1-3)Gal(b1-4)Glc,-1.32
same,glycan array binding signal (z-score),[19],-1.54
same,glycan array binding signal (z-score),[20],-1.1
same,glycan array binding signal (z-score),GlcNAc(b1-3)GalNAc,-1.38
same,glycan array binding signal (z-score),GlcNAc(b1-3)Man,-1.02
same,glycan array binding signal (z-score),[21],0.152
same,glycan array binding signal (z-score),[22],-0.204
same,glycan array binding signal (z-score),[23],-1.04
same,glycan array binding signal (z-score),[24],-1.28

# 11 entries from above, with bars between the fields.
binder | measurement | setting | value
B1 | glycan array binding signal (z-score) | [2] | -0.827
same | glycan array binding signal (z-score) | [3] | -0.249
same | glycan array binding signal (z-score) | [4] | 2.15
same | glycan array binding signal (z-score) | Glc(b1-4)Glc | -0.17
same | glycan array binding signal (z-score) | [5] | -0.109
same | glycan array binding signal (z-score) | [7] | -0.27
same | glycan array binding signal (z-score) | [10] | -1.38
same | glycan array binding signal (z-score) | [11] | 0.285
same | glycan array binding signal (z-score) | [13] | -0.353
same | glycan array binding signal (z-score) | [21] | 0.152
same | glycan array binding signal (z-score) | [23] | -1.04

# Source: the supplement of paper PMC8728848
